Data reported in the supplement of paper PMC8728848.
Some of the results follow.

How the values were obtained:
Test in all cases: glycan array binding signal (z-score within array); higher = stronger binding
Conditions in all cases: glycan notation: IUPAC condensed, linker removed
[1] = biological target: Neu5Ac(a2-3)Gal(b1-4)GlcNAc(b1-3)[Neu5Ac(a2-3)Gal(b1-4)GlcNAc(b1-6)]GalNAc
Procedure, shortened: (§1)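 Columns mapping to the same glycan were averaged after glycan names were converted to IUPAC-condensed notation. The data come from 3228 arrays in the Consortium for Functional Glycomics database, limited to those with an available protein sequence. Binding is reported as a within-array Z-score averaged across arrays of one protein sequence and across linkers.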

[2] = biological target: Neu5Ac(a2-3)Gal(b1-4)GlcNAc(b1-6)GalNAc
Procedure, shortened: as §1

[3] = biological target: Neu5Ac(a2-3)Gal(b1-4)GlcNAc(b1-6)[Gal(b1-3)]GalNAc
Procedure, shortened: as §1

[4] = biological target: Neu5Ac(a2-3)Gal(b1-4)GlcNAc(b1-6)[Neu5Ac(a2-3)Gal(b1-3)]GalNAc
Procedure, shortened: as §1

[5] = biological target: Neu5Ac(a2-3)Gal(b1-4)GlcNAc6S
Procedure, shortened: as §1

[6] = biological target: Neu5Ac(a2-3)Gal(b1-4)[Fuc(a1-3)]GlcNAc
Procedure, shortened: as §1

[7] = biological target: Neu5Ac(a2-3)Gal(b1-4)[Fuc(a1-3)]GlcNAc(b1-2)Man
Procedure, shortened: as §1

[8] = biological target: Neu5Ac(a2-3)Gal(b1-4)[Fuc(a1-3)]GlcNAc(b1-3)Gal
Procedure, shortened: as §1

[9] = biological target: Neu5Ac(a2-3)Gal(b1-4)[Fuc(a1-3)]GlcNAc(b1-3)Gal(b1-4)GlcNAc
Procedure, shortened: as §1

[10] = biological target: Neu5Ac(a2-3)Gal(b1-4)[Fuc(a1-3)]GlcNAc(b1-3)Gal(b1-4)[Fuc(a1-3)]GlcNAc(b1-3)Gal(b1-4)[Fuc(a1-3)]GlcNAc
Procedure, shortened: as §1

[11] = biological target: Neu5Ac(a2-3)Gal(b1-4)[Fuc(a1-3)]GlcNAc(b1-3)GalNAc
Procedure, shortened: as §1

[12] = biological target: Neu5Ac(a2-3)Gal(b1-4)[Fuc(a1-3)]GlcNAc(b1-6)[Gal(b1-3)]GalNAc
Procedure, shortened: as §1

[13] = biological target: Neu5Ac(a2-3)Gal(b1-4)[Fuc(a1-3)]GlcNAc(b1-6)[Neu5Ac(a2-3)Gal(b1-3)]GalNAc
Procedure, shortened: as §1

[14] = biological target: Neu5Ac(a2-3)Gal(b1-4)[Fuc(a1-3)]GlcNAc6S
Procedure, shortened: as §1

[15] = biological target: Neu5Ac(a2-3)Gal6S(b1-4)GlcNAc
Procedure, shortened: as §1

[16] = biological target: Neu5Ac(a2-3)Gal6S(b1-4)[Fuc(a1-3)]GlcNAc
Procedure, shortened: as §1

Neu5Ac(a2-3)GalNAc = biological target: Neu5Ac(a2-3)GalNAc
Procedure, shortened: as §1

[17] = biological target: Neu5Ac(a2-3)GalNAc(b1-4)GlcNAc
Procedure, shortened: as §1

[18] = biological target: Neu5Ac(a2-3)[GalNAc(b1-4)]Gal(b1-4)Glc
Procedure, shortened: as §1

[19] = biological target: Neu5Ac(a2-3)[GalNAc(b1-4)]Gal(b1-4)GlcNAc
Procedure, shortened: as §1

[20] = biological target: Neu5Ac(a2-3)[GalNAc(b1-4)]Gal(b1-4)GlcNAc(b1-3)GalNAc
Procedure, shortened: as §1

[21] = biological target: Neu5Ac(a2-3)[Neu5Ac(a2-6)]GalNAc
Procedure, shortened: as §1

Neu5Ac(a2-6)Gal = biological target: Neu5Ac(a2-6)Gal
Procedure, shortened: as §1

[22] = biological target: Neu5Ac(a2-6)Gal(b1-3)GlcNAc(b1-3)[Gal(b1-4)GlcNAc(b1-6)]Gal(b1-4)Glc
Procedure, shortened: as §1

Neu5Ac(a2-6)Gal(b1-4)Glc = biological target: Neu5Ac(a2-6)Gal(b1-4)Glc
Procedure, shortened: as §1

[23] = biological target: Neu5Ac(a2-6)Gal(b1-4)GlcNAc
Procedure, shortened: as §1

[24] = biological target: Neu5Ac(a2-6)Gal(b1-4)GlcNAc(b1-2)Man
Procedure, shortened: as §1

[25] = biological target: Neu5Ac(a2-6)Gal(b1-4)GlcNAc(b1-2)Man(a1-3)Man(b1-4)GlcNAc(b1-4)GlcNAc
Procedure, shortened: as §1

[26] = biological target: Neu5Ac(a2-6)Gal(b1-4)GlcNAc(b1-2)Man(a1-3)[Gal(b1-4)GlcNAc(b1-2)Man(a1-6)]Man(b1-4)GlcNAc(b1-4)GlcNAc
Procedure, shortened: as §1

[27] = biological target: Neu5Ac(a2-6)Gal(b1-4)GlcNAc(b1-2)Man(a1-3)[GlcNAc(b1-4)][Neu5Ac(a2-6)Gal(b1-4)GlcNAc(b1-2)Man(a1-6)]Man(b1-4)GlcNAc(b1-4)GlcNAc
Procedure, shortened: as §1

[28] = biological target: Neu5Ac(a2-6)Gal(b1-4)GlcNAc(b1-2)Man(a1-3)[Man(a1-6)]Man(b1-4)GlcNAc(b1-4)GlcNAc
Procedure, shortened: as §1

B1: cFel (Cyprinus carpio), P68512 (protein)
chain: LDCTVIDGNLKQIDAGSGSVVGVNNLNETFVLIDNVFTKISGSLKHFSVGPAGQLGVNTANNIFKYQSGGFVQLAGLLKQVDAGGDQIIAGVNMYDDIYCLNMDANNKWPSSNTPWVQINGKLKYYSCGPYSCWGVNSNDQIFIMKDVSSNVCSGSGSFINIPGLLSMIEVATDGSVFGVNSQGNLYQRTGVTRSKPDGTDWISMVACPNGHKHVSFDLGVLWLVCVDGSIRKCILTD
How did the “glycan array binding signal (z-score)” value [1] turn out when B1 was run?
Its value is -0.53.

And the “glycan array binding signal (z-score)” value [2]?
The value was -0.95.

What about the “glycan array binding signal (z-score)” value [3] of the same binder?
Its value is 0.62.

And the “glycan array binding signal (z-score)” value [4]?
The value was -0.131.

What about the “glycan array binding signal (z-score)” value [5] of the same binder?
Its value is -0.931.

And the “glycan array binding signal (z-score)” value [6]?
Its value is 1.11.

What about the “glycan array binding signal (z-score)” value [7] of the same binder?
Its value is -0.405.

And the “glycan array binding signal (z-score)” value [8]?
The value was -1.52.

And the “glycan array binding signal (z-score)” value [9]?
The value was -1.16.

And the “glycan array binding signal (z-score)” value [10]?
The value was -1.09.

And the “glycan array binding signal (z-score)” value [11]?
Its value is 0.437.

And the “glycan array binding signal (z-score)” value [12]?
Its value is 0.428.

And the “glycan array binding signal (z-score)” value [13]?
The value was 1.44.

What about the “glycan array binding signal (z-score)” value [14] of the same binder?
The value was -1.29.

And the “glycan array binding signal (z-score)” value [15]?
The value was 1.71.

And the “glycan array binding signal (z-score)” value [16]?
Its value is -0.444.

And the “glycan array binding signal (z-score)” value (Neu5Ac(a2-3)GalNAc)?
Its value is -1.15.

And the “glycan array binding signal (z-score)” value [17]?
The value was -1.23.

What about the “glycan array binding signal (z-score)” value [18] of the same binder?
The value was -0.516.

And the “glycan array binding signal (z-score)” value [19]?
The value was 0.215.

What about the “glycan array binding signal (z-score)” value [20] of the same binder?
The value was -0.199.

What about the “glycan array binding signal (z-score)” value [21] of the same binder?
The value was -0.084.

What about the “glycan array binding signal (z-score)” value (Neu5Ac(a2-6)Gal) of the same binder?
The value was -0.997.

What about the “glycan array binding signal (z-score)” value [22] of the same binder?
The value was 0.399.

What about the “glycan array binding signal (z-score)” value (Neu5Ac(a2-6)Gal(b1-4)Glc) of the same binder?
The value was -0.293.

And the “glycan array binding signal (z-score)” value [23]?
The value was -0.185.

What about the “glycan array binding signal (z-score)” value [24] of the same binder?
Its value is -0.345.

What about the “glycan array binding signal (z-score)” value [25] of the same binder?
The value was 0.167.

What about the “glycan array binding signal (z-score)” value [26] of the same binder?
Its value is 0.403.

What about the “glycan array binding signal (z-score)” value [27] of the same binder?
Its value is 1.4.

What about the “glycan array binding signal (z-score)” value [28] of the same binder?
Its value is -0.417.
